PubChem BioAssay AID720703 | Peter MacCallum Cancer Centre | 2013

Screen: 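Find kinases that boost or dampen angiotensin II-triggered EGFR transactivation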 (primary screen)
Cell system: immortalised, SV40-transformed mammary epithelial cells from human, with stable expression of tagged AT1R
Reagent: siRNA pool against human genes, 40 nM siRNA pool per well
Timing: 72 h from transfection to lysis and read-out
Challenge: angiotensin II stimulation (dose and duration not given); EGFR inhibitor AG1478 also listed
Measured: 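AlphaScreen bead assay of phosphorylated ERK1/2 in cell lysates, corrected for well confluency, converted to robust z-scores and averaged across two technical replicate plates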
Direction: phospho-ERK z-score: higher = more ERK phosphorylation after angiotensin II, relative to plate
Active means: 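Pools were ordered by robust z-score and 50 top-ranked pools, whether they raised or lowered the signal, were chosen for secondary testing; no numeric threshold was reported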
Calls: active = picked for secondary screen; inactive = not picked
Shown is one part, drawn at random, of 714 deposited reagents. In the full data, 50 (7%) were called active. 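Chosen pools sit at both extremes, so both low and high scores count as candidates; some pools appear more than once.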 Unmarked entries are inactive. Reagent sequences are not shown.

What is on record for HASPIN (histone H3 associated protein kinase)?
phospho-ERK z-score, replicate mean: 1.56

With MATK (megakaryocyte-associated tyrosine kinase), what does the deposit list?
phospho-ERK z-score, replicate mean: 1.36

For BRSK2 (BR serine/threonine kinase 2), how do the results read?
phospho-ERK z-score, replicate mean: -0.01

How did the screen score NEK8 (NIMA related kinase 8)?
phospho-ERK z-score, replicate mean: 1.76

With DLG2 (discs large MAGUK scaffold protein 2), how do the results read?
phospho-ERK z-score, replicate mean: 0.36

With NUP62 (nucleoporin 62), how do the results read?
phospho-ERK z-score, replicate mean: 0.94

What did the screen give for TRPM7?
phospho-ERK z-score, replicate mean: -0.78

For STK32B (serine/threonine kinase 32B), what was measured?
phospho-ERK z-score, replicate mean: -0.69

What is on record for ADPGK (ADP dependent glucokinase)?
phospho-ERK z-score, replicate mean: 1.32

Which result is listed for GALK1 (galactokinase 1)?
phospho-ERK z-score, replicate mean: 0.78

What did the screen give for STKLD1 (serine/threonine kinase like domain containing 1)?
phospho-ERK z-score, replicate mean: -0.03

What is on record for EPHB4 (EPH receptor B4)?
phospho-ERK z-score, replicate mean: -0.02

What did the screen give for FN3K (fructosamine 3 kinase)?
phospho-ERK z-score, replicate mean: 0.48

What did the screen give for IGF1R (insulin like growth factor 1 receptor)?
phospho-ERK z-score, replicate mean: -0.48

With PMVK (phosphomevalonate kinase), how do the results read?
phospho-ERK z-score, replicate mean: 2.91

With TP53RK (TP53 regulating kinase), what does the deposit list?
phospho-ERK z-score, replicate mean: -0.14

With PRKCSH (PRKCSH beta subunit of glucosidase II), how do the results read?
phospho-ERK z-score, replicate mean: 1.15

With DGKA (diacylglycerol kinase alpha), what was measured?
phospho-ERK z-score, replicate mean: 1.82

Which result is listed for TYK2 (tyrosine kinase 2)?
phospho-ERK z-score, replicate mean: 0.29

For CDC42BPB (CDC42 binding protein kinase beta), what does the deposit list?
phospho-ERK z-score, replicate mean: -0.4

What did the screen give for LYN (LYN proto-oncogene, Src family tyrosine kinase)?
phospho-ERK z-score, replicate mean: -0.7

With PRKD1 (protein kinase D1), what does the deposit list?
phospho-ERK z-score, replicate mean: -0.84

For MAP3K21 (mitogen-activated protein kinase kinase kinase 21), how do the results read?
phospho-ERK z-score, replicate mean: 0.18

With STK17B (serine/threonine kinase 17b), what was measured?
phospho-ERK z-score, replicate mean: 0.35

Sorted by “phospho-ERK z-score, replicate mean” (ascending): some entries from above.
CDC42BPB (CDC42 binding protein kinase beta) → phospho-ERK z-score, replicate mean = -0.4
TYK2 (tyrosine kinase 2) → phospho-ERK z-score, replicate mean = 0.29

Further entries:
With NUAK2 (NUAK family kinase 2), what was measured?
phospho-ERK z-score, replicate mean: 2.52

What is on record for ACVR1 (activin A receptor type 1)?
phospho-ERK z-score, replicate mean: 0.44

With CALM2 (calmodulin 2), what does the deposit list?
phospho-ERK z-score, replicate mean: -0.4

For CSNK1E (casein kinase 1 epsilon), what was measured?
phospho-ERK z-score, replicate mean: -0.64

With EFNA3 (ephrin A3), what was measured?
phospho-ERK z-score, replicate mean: 0.6

What is on record for PRKCD (protein kinase C delta)?
phospho-ERK z-score, replicate mean: -1.21 (active)

For KHK (ketohexokinase), what does the deposit list?
phospho-ERK z-score, replicate mean: 1.17

With TTBK2 (tau tubulin kinase 2), what was measured?
phospho-ERK z-score, replicate mean: 2.78

With DGKQ (diacylglycerol kinase theta), how do the results read?
phospho-ERK z-score, replicate mean: -0.74

With FRK (fyn related Src family tyrosine kinase), how do the results read?
phospho-ERK z-score, replicate mean: 4.58 (active)

What did the screen give for IKBKG?
phospho-ERK z-score, replicate mean: 2.09

With DGKI (diacylglycerol kinase iota), what does the deposit list?
phospho-ERK z-score, replicate mean: -0.18

Which result is listed for TAOK3 (TAO kinase 3)?
phospho-ERK z-score, replicate mean: -1.1 (active)

What did the screen give for ALDH18A1 (aldehyde dehydrogenase 18 family member A1)?
phospho-ERK z-score, replicate mean: 0.28

For CDKL4 (cyclin dependent kinase like 4), what does the deposit list?
phospho-ERK z-score, replicate mean: 1.03

What did the screen give for MOS (MOS proto-oncogene, serine/threonine kinase)?
phospho-ERK z-score, replicate mean: 0.02

How did the screen score MAST2 (microtubule associated serine/threonine kinase 2)?
phospho-ERK z-score, replicate mean: 2.96

For RPS6KL1 (ribosomal protein S6 kinase like 1), how do the results read?
phospho-ERK z-score, replicate mean: 0.11

For EPHA3 (EPH receptor A3), how do the results read?
phospho-ERK z-score, replicate mean: 1.75

How did the screen score RYK (receptor like tyrosine kinase)?
phospho-ERK z-score, replicate mean: -0.72

What is on record for GRK3 (G protein-coupled receptor kinase 3)?
phospho-ERK z-score, replicate mean: 0.01

With MAPK10 (mitogen-activated protein kinase 10), what does the deposit list?
phospho-ERK z-score, replicate mean: -0.1

What did the screen give for DMPK (DM1 protein kinase)?
phospho-ERK z-score, replicate mean: -0.05
